Laboratory results: article PMC5814800
Results are given in words; binding and its absence hold for the method and conditions named. Binding can be weak; no strength is given. Where a sequence is shown, tags or fusion partners need not be part of it.

Target: T1, wild-type ϕC31 integrase fused to T18 (Int-T18 fusion, pEY111) (Streptomyces phage ϕC31) (UniProt Q9T221)
T1 sequence: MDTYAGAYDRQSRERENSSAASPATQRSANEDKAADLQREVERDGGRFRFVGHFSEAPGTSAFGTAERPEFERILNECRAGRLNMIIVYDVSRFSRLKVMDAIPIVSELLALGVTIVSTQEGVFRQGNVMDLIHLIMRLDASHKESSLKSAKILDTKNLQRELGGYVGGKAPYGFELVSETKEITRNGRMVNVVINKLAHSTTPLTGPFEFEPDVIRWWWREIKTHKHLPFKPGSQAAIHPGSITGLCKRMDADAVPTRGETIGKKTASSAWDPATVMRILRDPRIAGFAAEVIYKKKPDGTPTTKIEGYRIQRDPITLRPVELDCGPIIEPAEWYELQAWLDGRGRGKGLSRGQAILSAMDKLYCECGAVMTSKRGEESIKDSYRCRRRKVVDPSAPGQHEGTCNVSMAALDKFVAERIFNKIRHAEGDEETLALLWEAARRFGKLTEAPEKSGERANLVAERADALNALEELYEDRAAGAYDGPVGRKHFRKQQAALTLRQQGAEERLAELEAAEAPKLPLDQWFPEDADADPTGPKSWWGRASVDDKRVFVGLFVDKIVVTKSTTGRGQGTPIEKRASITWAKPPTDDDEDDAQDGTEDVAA
Assay: two-hybrid; bacterial two-hybrid (adenylate cyclase T18 and T25 fusions) in E. coli BTH101; colony colour on LB agar with IPTG and X-Gal, 30°C, 24–48 h

Substance	binding
T25-ϕC31 gp3G119D (Streptomyces phage ϕC31)	no binding
T25-ϕC31 gp3P154L (Streptomyces phage ϕC31)	no binding
T25-ϕC31 gp3C117Y (Streptomyces phage ϕC31)	no binding
T25 - TG1 gp25 fusion (pCMF30) (phage TG1)	binds weakly
T25 - ϕBT1 gp3 fusion (pTK33) (phage ϕBT1)	binds
T25-ϕC31 gp3P168L (Streptomyces phage ϕC31)	binds
T25-ϕC31 gp3L170F (Streptomyces phage ϕC31)	no binding
